According to article PMC6180485, “Elongation/Termination Factor Exchange Mediated by PP1 Phosphatase Orchestrates Transcription Termination” (Cell Reports, 2018):
These are yes or no findings as the source states them, for the method shown. For some assays here: In cells and extracts the contact can be indirect. Some binding calls cover weakened binding; strength is not graded here. Where a sequence is shown, tags or fusion partners need not be part of it.

By UniProt entry, the sequences of proteins in these tests, tags left out.
UniProt P36594: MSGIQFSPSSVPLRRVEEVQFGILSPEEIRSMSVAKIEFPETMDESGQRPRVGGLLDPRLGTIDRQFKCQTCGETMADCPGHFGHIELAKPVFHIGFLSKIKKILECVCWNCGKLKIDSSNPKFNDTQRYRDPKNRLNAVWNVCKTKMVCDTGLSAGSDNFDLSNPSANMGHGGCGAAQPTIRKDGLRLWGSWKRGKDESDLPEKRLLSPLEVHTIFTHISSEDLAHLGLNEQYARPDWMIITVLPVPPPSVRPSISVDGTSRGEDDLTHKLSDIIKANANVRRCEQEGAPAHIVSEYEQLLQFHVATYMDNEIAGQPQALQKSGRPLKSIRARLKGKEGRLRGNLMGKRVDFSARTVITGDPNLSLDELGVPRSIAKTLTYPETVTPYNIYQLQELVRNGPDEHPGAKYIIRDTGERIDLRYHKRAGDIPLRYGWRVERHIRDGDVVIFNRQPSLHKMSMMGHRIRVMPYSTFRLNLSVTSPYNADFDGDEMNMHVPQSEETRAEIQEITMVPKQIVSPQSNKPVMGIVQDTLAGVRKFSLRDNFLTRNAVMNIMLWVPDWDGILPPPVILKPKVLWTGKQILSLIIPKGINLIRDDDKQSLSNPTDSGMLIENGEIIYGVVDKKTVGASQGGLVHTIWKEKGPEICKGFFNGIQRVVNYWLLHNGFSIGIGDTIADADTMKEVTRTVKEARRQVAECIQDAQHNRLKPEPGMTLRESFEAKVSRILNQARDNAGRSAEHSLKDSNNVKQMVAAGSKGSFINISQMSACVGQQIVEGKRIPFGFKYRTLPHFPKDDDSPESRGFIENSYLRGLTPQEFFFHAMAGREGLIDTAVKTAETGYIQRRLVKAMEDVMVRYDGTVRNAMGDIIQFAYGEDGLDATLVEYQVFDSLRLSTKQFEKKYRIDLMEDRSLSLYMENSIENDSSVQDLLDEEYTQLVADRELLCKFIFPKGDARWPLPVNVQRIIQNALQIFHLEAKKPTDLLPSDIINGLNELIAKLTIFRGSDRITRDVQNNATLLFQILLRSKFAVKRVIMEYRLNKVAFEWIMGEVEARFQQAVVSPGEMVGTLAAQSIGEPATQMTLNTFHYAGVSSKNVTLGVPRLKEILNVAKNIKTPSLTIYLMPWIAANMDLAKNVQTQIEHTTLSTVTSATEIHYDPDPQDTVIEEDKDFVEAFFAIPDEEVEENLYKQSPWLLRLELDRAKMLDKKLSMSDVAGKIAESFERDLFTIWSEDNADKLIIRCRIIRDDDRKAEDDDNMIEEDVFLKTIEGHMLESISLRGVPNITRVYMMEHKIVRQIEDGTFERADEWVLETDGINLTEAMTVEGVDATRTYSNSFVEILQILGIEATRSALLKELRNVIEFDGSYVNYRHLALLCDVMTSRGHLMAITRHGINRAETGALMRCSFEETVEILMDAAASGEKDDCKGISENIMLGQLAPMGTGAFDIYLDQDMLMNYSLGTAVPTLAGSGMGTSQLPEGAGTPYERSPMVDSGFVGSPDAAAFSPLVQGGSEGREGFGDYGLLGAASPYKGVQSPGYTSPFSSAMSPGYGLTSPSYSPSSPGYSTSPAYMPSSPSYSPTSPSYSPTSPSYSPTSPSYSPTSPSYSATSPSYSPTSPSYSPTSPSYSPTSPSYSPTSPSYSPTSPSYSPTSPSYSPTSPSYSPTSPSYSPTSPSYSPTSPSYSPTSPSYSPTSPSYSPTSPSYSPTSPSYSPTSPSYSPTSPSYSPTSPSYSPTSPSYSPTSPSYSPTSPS

B1: Spt4 (protein, UniProt Q9P7K8 1-105)
chain: MDKLNRTRSRACLICGIVLPHSVFANKGCPNDGVDDVETFTSPVFEGIMAMMSPTESWVARWQRIDTFTPGIYATRVQGVLNEDVVESLRRRGINYRPRNGTSWD

How the values were obtained:
[1] = target: T1, Flagged-Rpb9 (S. pombe) (UniProt O74635); assay: co-IP; Rpb9-Flag bound to anti-Flag M2 agarose from S. pombe lysate, washed with 1 M NaCl and 1 M urea, eluted with Flag peptide; Rpb1 CTD detected by western blot
T1 sequence: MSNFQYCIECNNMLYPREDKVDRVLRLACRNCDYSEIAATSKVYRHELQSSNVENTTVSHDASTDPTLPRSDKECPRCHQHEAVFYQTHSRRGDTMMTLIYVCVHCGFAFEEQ

[2] = target: T2, Spt5 with N-terminal His8-tag and thioredoxin (S. pombe) (UniProt O13936); assay: co-purification; Spt4 co-expressed with His8-thioredoxin-Spt5 in E. coli; Ni-NTA (wash with 1 M NaCl, 1 M urea), Q HP ion exchange, Superdex 200 gel filtration; SDS-PAGE
T2 sequence: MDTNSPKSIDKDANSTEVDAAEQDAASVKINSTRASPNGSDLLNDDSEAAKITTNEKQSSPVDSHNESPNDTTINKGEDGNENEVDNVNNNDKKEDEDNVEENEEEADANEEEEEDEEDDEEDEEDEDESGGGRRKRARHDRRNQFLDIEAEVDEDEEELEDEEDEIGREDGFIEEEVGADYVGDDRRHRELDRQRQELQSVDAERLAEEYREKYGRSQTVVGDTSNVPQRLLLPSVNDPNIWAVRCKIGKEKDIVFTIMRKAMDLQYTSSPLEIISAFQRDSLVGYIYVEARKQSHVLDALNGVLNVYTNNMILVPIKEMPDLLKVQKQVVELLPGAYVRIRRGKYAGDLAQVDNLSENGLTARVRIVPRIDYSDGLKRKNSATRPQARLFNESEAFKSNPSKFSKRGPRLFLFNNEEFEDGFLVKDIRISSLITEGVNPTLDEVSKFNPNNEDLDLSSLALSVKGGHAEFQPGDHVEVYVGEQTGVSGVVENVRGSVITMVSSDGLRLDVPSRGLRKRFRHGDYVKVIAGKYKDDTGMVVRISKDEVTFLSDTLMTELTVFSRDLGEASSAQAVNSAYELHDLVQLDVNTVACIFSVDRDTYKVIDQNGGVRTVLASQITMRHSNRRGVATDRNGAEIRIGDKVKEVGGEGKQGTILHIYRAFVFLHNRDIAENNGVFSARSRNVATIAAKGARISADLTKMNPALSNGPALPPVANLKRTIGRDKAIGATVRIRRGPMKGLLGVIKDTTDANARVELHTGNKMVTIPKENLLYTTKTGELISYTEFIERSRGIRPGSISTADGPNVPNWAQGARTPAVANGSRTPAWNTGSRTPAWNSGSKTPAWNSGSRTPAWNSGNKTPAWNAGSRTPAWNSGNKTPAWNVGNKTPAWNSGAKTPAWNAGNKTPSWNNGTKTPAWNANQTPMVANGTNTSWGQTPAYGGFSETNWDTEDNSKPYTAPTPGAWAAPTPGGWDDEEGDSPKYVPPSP

| Molecule | binding [1] | binding [2] |
| --- | --- | --- |
| Rpb1, subunit of S. pombe Pol II (from UniProt P36594 1-1752) | binds |  |
| B1 |  | binds |
